Construct, isoform or probe ends are uncertain for at least one entry. Results from cells or extracts need not show a direct contact. For some of these results: A weaker result is weaker than the reference pair of the same experiment. For some of these results: At least one verdict was read from the data and is not stated in words by the source. For some of these results: Tags and fusion partners may be left off the protein sequences shown. For some of these results: Whether high values mean tight binding is not given here for every scale.
Experiments:
[1] = biological target: T1, DDX1 (endogenous) (Homo sapiens (HeLa)) (UniProt Q92499); test: photo-crosslinking pull-down, PRM MS, immunoblot; conditions: UV, biotin CP, RNA 1-7, DNA 8-20, pull-down: HeLa RIPA lysate, 4 C, UV 6 min on ice, 2 M NaCl washes, protein in an extract, label: none on BP
T1 sequence (looked up, limits assumed): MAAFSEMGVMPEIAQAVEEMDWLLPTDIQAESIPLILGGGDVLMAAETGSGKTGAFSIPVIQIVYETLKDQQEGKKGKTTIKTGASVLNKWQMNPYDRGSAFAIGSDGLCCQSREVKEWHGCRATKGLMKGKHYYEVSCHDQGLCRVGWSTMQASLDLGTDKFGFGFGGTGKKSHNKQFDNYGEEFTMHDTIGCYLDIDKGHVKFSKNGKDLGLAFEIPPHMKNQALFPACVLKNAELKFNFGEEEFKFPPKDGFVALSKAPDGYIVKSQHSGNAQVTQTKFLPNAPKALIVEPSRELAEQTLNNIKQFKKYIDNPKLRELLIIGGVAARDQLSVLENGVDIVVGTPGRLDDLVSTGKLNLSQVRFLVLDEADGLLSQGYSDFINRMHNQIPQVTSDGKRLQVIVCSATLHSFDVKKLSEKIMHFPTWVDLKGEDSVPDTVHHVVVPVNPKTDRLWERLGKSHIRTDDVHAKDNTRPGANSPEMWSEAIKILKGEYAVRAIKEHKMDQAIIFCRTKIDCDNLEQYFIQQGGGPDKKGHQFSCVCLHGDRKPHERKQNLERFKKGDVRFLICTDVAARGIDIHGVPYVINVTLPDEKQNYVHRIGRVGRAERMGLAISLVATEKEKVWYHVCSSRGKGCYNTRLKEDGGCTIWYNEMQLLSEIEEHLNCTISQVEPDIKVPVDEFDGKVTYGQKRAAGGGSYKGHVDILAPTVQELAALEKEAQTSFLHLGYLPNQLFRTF

Chains of the proteins cited; added tags and fusions are not shown. Lines headed by an entry give the natural chain unless they say otherwise; changes in a name come on top.
UniProt P38159: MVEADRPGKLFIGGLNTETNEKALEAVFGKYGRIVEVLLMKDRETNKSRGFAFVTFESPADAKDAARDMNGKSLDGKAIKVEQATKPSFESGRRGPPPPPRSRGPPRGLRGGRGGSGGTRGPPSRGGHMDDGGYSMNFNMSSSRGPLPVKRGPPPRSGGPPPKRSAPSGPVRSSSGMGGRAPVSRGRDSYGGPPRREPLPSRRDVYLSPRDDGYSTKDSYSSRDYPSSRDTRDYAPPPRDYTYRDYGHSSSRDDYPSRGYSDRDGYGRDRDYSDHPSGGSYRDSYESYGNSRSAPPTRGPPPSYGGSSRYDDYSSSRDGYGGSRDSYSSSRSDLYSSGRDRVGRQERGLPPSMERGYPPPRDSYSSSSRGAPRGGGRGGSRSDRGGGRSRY
UniProt P29558: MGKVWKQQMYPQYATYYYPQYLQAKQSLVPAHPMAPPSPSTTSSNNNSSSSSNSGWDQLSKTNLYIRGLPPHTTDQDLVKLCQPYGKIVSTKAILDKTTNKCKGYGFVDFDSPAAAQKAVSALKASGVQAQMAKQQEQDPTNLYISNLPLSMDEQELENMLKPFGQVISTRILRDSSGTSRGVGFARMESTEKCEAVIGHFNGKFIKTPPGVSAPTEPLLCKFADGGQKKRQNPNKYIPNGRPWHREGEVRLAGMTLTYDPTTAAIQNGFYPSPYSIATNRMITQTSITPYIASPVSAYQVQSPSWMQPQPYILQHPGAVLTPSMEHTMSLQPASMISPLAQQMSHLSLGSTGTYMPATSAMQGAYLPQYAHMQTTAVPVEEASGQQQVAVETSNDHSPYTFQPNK
UniProt Q6NZY4: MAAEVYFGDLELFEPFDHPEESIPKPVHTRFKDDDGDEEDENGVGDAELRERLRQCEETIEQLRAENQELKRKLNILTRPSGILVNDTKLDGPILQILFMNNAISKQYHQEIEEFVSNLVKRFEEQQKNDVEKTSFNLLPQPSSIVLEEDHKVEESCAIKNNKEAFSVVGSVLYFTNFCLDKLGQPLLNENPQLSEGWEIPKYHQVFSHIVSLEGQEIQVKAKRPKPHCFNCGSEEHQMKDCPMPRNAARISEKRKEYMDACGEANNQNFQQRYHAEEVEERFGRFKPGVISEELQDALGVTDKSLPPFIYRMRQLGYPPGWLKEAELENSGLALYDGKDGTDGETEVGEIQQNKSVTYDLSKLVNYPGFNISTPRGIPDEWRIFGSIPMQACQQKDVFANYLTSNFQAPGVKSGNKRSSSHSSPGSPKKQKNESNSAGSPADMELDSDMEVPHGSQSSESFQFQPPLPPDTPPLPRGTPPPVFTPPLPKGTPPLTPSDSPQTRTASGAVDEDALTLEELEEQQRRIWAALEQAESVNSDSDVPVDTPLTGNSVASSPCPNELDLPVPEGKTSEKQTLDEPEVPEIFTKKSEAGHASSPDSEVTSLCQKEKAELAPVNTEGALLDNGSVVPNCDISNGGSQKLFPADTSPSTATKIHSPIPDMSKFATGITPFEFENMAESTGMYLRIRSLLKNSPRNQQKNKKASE

[2] = biological target: T2, DUS3L (endogenous) (Homo sapiens (HeLa)) (UniProt Q96G46); test: photo-crosslinking pull-down, PRM MS; conditions: UV, biotin CP, RNA 1-7, DNA 8-20, pull-down: HeLa RIPA lysate, 4 C, UV 6 min on ice, 2 M NaCl washes, protein in an extract, label: none on BP
T2 sequence (looked up, limits assumed): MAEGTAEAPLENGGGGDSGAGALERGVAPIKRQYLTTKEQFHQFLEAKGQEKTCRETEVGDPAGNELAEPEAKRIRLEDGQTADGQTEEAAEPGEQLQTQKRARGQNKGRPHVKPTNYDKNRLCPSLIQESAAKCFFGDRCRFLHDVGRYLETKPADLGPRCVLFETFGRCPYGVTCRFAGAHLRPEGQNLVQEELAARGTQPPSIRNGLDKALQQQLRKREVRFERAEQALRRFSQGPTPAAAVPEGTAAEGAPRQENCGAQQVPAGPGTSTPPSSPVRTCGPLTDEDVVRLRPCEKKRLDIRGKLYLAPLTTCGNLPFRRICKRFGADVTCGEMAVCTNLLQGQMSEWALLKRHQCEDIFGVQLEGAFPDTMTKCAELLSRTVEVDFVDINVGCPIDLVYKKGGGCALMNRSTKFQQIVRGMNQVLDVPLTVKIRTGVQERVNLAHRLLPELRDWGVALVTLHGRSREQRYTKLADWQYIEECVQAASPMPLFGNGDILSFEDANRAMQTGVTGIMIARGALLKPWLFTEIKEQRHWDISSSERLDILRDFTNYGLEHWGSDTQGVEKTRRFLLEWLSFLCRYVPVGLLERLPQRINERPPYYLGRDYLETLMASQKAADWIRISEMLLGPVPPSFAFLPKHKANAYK

[3] = biological target: RBMX (endogenous) (Homo sapiens (HeLa)) (UniProt P38159); test: photo-crosslinking pull-down, PRM MS; conditions: UV, biotin CP, RNA 1-7, DNA 8-20, pull-down: HeLa RIPA lysate, 4 C, UV 6 min on ice, 2 M NaCl washes, protein in an extract, label: none on BP
[4] = biological target: T1, DDX1 (endogenous) (Homo sapiens (HeLa)); test: photo-crosslinking pull-down; conditions: HeLa lysate, UV, biotin CP, RNA 1-12, DNA 13-25, pull-down: HeLa RIPA lysate, 4 C, UV 6 min on ice, 2 M NaCl washes, protein in an extract, label: none on BP, CP carries biotin and diazirine
[5] = biological target: RBMS1 (endogenous) (Homo sapiens (HeLa)) (UniProt P29558); test: photo-crosslinking pull-down, PRM MS, immunoblot; conditions: UV, biotin CP, RNA 1-9, DNA 10-22, pull-down: HeLa RIPA lysate, 4 C, UV 6 min on ice, 2 M NaCl washes, protein in an extract, label: none on BP, CP carries FAM or biotin and diazirine
[6] = biological target: T3, SSBP1 (endogenous) (Homo sapiens (HeLa)) (UniProt Q04837); test: photo-crosslinking pull-down, PRM MS, immunoblot; conditions: HeLa lysate, UV, biotin CP; RNA 1-9, DNA 10-22; unmodified A; pull-down: HeLa RIPA lysate, 4 C, UV 6 min on ice, 2 M NaCl washes; protein in an extract; label: none on BP, CP carries FAM or biotin and diazirine
T3 sequence (looked up, limits assumed): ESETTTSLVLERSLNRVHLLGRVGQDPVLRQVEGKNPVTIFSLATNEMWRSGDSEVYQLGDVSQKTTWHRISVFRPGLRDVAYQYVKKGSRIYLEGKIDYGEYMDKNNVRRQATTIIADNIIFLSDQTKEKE

[7] = biological target: T4, YTHDC2 (endogenous) (Homo sapiens (HeLa)) (UniProt Q9H6S0); test: photo-crosslinking pull-down, PRM MS; conditions: RNA 1-9, DNA 10-22, pull-down: HeLa RIPA lysate, 4 C, UV 6 min on ice, 2 M NaCl washes, protein in an extract, label: none on BP, CP carries FAM or biotin and diazirine
T4 sequence (looked up, limits assumed): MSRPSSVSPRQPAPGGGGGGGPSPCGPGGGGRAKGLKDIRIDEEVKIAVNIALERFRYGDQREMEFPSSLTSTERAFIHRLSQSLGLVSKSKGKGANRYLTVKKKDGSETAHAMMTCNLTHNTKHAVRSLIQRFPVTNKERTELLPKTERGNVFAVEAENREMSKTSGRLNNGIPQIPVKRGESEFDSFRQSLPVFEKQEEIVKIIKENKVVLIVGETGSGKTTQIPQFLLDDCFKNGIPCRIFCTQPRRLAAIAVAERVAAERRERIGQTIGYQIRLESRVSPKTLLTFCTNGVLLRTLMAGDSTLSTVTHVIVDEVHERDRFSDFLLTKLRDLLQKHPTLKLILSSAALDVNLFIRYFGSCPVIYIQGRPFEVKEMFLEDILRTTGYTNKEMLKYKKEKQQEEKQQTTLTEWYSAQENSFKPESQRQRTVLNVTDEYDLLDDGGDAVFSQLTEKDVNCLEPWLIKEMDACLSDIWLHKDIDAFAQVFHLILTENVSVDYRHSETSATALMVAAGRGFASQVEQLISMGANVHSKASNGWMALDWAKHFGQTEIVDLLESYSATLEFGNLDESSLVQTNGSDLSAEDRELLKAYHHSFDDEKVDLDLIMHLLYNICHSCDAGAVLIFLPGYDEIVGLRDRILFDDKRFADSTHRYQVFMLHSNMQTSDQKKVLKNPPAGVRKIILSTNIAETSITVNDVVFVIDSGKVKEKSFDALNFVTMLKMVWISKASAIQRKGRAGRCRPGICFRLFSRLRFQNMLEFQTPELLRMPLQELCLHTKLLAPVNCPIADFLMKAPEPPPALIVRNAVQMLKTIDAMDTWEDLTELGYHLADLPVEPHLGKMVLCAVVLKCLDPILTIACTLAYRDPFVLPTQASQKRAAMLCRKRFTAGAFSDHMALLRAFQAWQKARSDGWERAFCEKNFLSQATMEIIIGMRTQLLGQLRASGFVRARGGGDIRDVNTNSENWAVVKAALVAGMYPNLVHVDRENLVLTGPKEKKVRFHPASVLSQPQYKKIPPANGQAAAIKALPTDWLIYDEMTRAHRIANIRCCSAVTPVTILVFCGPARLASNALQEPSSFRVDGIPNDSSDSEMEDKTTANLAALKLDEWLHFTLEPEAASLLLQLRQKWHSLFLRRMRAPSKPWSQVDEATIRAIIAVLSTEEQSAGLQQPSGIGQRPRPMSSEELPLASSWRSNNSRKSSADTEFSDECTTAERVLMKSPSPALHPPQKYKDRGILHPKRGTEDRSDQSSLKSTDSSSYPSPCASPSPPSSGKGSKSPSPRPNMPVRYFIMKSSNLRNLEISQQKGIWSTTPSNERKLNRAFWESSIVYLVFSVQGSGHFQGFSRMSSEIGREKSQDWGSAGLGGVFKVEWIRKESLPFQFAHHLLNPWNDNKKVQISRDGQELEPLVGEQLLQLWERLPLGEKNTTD

[8] = biological target: ZCCHC8 (endogenous) (Homo sapiens (HeLa)) (UniProt Q6NZY4); test: photo-crosslinking pull-down, DIA MS, immunoblot; conditions: UV, biotin CP, RNA 1-9, DNA 10-22, pull-down: HeLa RIPA lysate, 4 C, UV 6 min on ice, 2 M NaCl washes, protein in an extract, label: none on BP, CP carries FAM or biotin and diazirine
[9] = biological target: T3, SSBP1 (endogenous) (Homo sapiens (HeLa)); test: photo-crosslinking pull-down, DIA MS, immunoblot; conditions: vs N2, HeLa lysate, UV, biotin CP; m6A at position 3; RNA 1-9, DNA 10-22; pull-down: HeLa RIPA lysate, 4 C, UV 6 min on ice, 2 M NaCl washes; protein in an extract; label: none on BP, CP carries FAM or biotin and diazirine
[10] = HeLa lysate, unmodified, CP carries biotin and diazirine
[11] = vs N4, HeLa lysate, 2'-O-methyl A at position 1, CP carries biotin and …
[12] = vs N2, HeLa lysate, m6A at position 3

## AAGAUCGTGAATGCCAAAGC [BP-A(Am)]
[1]; [10]
  binding result: binds more weakly
[2]; [10]
  binding result: binds more weakly
[3]; [10]
  binding result: binds more weakly

## AAGAUCGTGAATGCCAAAGC [BP-Am]
[1]; [11]
  binding signal: 2.18 fold Am/A
[2]; [11]
  binding signal: 2 fold Am/A
[3]; [11]
  binding signal: 2 fold Am/A

## GAGUCAGUCAAGTGAATGCCAAAGC [BP-A-6(Am)]
[4]; unmodified
  binding result: binds more weakly

## GAGUCAGUCAAGTGAATGCCAAAGC [BP-Am-6]
[4]; 2'-O-methyl A at position 6
  binding result: binds

## GGACUGUACTGAATGCCAAAGC [BP-A(m6A)]
[5]; HeLa lysate, unmodified A
  binding result: binds more weakly
[6]
  binding result: binds more weakly
[7]; HeLa lysate, UV, biotin CP, unmodified A
  binding result: binds more weakly
[8]; HeLa lysate, unmodified A
  binding result: binds more weakly

## GGACUGUACTGAATGCCAAAGC [BP-m6A]
[5]; [12]
  binding signal: 3.21 fold m6A/A
[7]; 2.41-14.37 fold over N2 given as range for YTHDC2 and YTHDF1-3 (DIA), m6A at position 3
  binding result: binds
[9]
  binding signal: 12.4 fold m6A/A
[8]; [12]
  binding signal: 2.24 fold m6A/A
